# Reference: the supplement of paper PMC6411743
# Chains of the proteins cited; added tags and fusions are not shown. Lines headed by an entry give the natural chain unless they say otherwise; changes in a name come on top.
# UniProt P32856: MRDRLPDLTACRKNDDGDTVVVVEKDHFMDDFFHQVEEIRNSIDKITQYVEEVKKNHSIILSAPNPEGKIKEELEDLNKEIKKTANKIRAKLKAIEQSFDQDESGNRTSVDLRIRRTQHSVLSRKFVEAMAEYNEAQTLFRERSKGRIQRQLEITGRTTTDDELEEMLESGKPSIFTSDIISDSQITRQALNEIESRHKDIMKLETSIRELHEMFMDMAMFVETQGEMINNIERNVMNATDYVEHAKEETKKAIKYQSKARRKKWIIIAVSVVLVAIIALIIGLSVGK
# UniProt P21580: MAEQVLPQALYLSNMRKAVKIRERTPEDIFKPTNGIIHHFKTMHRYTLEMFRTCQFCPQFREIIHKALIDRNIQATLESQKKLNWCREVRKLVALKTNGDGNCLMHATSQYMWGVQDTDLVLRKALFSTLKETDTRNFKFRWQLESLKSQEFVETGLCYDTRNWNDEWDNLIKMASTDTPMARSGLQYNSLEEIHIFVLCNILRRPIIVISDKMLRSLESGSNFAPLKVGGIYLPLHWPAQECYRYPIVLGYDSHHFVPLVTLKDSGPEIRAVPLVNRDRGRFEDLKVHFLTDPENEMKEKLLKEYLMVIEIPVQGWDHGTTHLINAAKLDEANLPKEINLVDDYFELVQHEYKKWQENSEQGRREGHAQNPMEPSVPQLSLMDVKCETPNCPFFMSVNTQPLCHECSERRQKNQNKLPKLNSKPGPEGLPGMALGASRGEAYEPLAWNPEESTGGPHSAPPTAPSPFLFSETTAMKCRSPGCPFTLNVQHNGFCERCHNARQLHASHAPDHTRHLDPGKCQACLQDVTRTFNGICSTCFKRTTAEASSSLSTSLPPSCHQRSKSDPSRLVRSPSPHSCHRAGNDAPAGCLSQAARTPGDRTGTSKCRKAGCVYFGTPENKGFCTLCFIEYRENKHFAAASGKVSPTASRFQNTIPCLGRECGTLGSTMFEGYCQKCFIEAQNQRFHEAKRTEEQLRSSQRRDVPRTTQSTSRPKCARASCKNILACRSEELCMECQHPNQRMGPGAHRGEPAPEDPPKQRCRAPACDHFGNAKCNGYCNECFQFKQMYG
# UniProt P31930: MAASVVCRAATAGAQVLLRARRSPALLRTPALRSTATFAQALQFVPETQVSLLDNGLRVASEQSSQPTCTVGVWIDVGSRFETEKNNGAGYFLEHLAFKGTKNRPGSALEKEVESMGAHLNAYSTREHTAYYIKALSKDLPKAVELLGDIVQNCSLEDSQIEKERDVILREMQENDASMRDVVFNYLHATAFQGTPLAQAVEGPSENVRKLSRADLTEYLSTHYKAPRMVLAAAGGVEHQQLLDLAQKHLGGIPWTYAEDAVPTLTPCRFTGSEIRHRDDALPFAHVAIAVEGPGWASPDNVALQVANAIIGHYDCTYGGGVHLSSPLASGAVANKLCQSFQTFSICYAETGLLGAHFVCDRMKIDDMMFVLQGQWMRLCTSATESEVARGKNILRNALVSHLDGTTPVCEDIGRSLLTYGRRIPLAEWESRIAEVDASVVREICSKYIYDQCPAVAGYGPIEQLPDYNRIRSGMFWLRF
# UniProt P35244: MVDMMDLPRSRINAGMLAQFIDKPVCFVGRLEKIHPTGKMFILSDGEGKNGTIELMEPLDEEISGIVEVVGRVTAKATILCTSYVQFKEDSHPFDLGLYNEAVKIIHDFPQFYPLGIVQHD
# UniProt P30084: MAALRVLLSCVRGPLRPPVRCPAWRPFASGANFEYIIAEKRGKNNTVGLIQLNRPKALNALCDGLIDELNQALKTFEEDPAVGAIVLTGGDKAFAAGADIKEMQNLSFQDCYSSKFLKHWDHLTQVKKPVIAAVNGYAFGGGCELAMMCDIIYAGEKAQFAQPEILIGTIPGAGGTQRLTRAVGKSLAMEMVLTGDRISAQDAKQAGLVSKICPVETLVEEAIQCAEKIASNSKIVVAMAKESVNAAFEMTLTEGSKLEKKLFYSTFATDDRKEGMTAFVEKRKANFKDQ
# UniProt P31040: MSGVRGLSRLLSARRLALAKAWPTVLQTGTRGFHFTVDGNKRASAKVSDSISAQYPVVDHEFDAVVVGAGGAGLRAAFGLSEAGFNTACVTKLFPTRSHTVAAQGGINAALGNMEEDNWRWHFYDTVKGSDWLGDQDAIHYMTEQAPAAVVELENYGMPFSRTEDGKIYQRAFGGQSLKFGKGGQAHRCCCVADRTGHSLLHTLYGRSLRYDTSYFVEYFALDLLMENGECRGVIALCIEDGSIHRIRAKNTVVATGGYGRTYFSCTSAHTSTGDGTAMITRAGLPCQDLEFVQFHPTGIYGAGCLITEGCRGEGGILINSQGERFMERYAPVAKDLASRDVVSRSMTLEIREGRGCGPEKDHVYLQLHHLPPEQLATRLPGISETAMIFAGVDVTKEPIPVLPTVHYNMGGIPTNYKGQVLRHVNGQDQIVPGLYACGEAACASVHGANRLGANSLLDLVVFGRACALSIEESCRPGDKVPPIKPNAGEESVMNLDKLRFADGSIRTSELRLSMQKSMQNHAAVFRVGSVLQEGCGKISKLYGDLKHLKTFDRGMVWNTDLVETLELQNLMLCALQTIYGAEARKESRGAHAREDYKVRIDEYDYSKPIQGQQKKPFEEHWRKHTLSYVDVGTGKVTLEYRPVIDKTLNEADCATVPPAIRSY
# UniProt P35579, whole entry: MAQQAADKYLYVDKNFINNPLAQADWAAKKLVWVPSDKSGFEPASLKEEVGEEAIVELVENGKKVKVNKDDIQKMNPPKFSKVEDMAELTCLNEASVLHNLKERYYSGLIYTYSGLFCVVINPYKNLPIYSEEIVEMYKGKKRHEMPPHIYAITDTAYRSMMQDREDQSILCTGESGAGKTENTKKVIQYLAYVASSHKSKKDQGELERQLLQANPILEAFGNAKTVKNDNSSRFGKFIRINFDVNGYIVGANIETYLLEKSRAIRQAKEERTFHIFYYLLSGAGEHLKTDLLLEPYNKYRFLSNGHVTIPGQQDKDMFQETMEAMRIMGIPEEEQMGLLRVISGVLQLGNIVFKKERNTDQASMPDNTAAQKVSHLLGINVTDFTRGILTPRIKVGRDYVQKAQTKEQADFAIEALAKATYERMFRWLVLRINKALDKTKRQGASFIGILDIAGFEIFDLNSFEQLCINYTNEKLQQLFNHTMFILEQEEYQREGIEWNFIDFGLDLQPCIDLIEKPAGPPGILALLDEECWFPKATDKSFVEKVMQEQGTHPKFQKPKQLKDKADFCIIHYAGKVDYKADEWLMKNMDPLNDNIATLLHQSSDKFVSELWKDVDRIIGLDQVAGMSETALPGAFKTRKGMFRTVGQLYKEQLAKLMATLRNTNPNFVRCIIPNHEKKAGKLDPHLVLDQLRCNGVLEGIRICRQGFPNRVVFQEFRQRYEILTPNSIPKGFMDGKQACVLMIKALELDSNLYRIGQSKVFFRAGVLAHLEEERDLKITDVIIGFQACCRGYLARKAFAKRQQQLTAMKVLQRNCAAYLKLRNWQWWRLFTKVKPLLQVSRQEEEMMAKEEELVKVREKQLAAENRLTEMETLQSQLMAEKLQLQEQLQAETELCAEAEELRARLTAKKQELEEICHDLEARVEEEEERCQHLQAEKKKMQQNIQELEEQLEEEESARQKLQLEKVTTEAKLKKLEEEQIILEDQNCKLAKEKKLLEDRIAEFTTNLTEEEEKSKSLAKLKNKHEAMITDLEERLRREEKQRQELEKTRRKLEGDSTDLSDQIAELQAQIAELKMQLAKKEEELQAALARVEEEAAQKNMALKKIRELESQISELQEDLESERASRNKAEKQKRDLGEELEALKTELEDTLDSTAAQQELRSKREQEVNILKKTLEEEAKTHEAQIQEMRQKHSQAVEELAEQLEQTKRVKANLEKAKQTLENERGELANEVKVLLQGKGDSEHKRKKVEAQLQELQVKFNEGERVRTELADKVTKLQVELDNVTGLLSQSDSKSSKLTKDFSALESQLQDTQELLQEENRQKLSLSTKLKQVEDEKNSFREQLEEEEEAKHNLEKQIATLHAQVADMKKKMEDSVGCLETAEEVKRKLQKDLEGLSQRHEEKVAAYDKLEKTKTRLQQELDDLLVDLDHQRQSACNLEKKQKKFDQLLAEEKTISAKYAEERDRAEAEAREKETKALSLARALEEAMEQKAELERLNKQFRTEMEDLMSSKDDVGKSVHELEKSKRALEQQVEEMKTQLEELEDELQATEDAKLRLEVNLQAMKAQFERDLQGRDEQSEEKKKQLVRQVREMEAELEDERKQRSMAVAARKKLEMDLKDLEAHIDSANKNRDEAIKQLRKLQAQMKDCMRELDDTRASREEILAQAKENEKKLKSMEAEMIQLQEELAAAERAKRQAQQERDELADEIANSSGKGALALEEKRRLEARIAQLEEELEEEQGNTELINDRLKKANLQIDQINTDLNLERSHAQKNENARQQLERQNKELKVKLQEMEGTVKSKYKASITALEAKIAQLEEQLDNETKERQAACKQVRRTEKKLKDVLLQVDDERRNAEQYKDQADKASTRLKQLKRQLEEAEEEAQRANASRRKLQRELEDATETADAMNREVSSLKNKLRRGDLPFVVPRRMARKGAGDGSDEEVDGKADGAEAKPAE
# UniProt P30086: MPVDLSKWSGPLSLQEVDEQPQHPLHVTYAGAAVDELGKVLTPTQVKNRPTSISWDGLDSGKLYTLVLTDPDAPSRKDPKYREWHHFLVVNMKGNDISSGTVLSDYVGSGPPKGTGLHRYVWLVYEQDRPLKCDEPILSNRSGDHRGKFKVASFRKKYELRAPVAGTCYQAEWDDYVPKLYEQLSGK
# UniProt P28907, whole entry: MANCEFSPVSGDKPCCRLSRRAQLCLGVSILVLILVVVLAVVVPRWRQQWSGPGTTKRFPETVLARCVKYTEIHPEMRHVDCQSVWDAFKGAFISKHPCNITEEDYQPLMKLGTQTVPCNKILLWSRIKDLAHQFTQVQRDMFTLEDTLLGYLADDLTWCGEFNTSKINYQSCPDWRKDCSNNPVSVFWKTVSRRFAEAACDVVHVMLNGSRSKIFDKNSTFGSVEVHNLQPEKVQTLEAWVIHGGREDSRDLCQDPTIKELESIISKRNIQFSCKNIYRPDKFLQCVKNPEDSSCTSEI
# UniProt P32189: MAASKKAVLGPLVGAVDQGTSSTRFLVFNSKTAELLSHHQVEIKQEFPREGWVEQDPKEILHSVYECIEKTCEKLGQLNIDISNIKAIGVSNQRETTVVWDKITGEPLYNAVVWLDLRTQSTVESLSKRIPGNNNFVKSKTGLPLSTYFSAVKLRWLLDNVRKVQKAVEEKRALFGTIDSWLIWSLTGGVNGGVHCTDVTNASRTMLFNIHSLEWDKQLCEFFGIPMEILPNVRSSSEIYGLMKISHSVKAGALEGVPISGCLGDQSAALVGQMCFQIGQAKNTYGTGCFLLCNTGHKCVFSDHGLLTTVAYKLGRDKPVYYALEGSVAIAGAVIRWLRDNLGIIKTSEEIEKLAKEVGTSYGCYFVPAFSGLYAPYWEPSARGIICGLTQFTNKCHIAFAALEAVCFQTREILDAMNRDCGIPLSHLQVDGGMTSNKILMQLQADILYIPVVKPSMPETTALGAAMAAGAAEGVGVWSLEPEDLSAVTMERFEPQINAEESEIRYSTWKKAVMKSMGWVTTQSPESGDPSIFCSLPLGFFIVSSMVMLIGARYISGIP
# UniProt P31321, whole entry: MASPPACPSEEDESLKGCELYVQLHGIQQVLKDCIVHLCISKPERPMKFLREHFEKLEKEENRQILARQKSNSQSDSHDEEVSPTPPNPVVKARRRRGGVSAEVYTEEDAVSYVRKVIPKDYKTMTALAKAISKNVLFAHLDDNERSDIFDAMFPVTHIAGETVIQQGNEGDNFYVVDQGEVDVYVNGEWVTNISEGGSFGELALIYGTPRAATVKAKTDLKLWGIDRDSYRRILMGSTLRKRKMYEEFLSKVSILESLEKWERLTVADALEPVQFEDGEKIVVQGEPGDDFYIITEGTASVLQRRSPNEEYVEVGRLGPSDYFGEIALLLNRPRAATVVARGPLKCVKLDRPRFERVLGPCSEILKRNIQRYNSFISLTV
# UniProt P19525: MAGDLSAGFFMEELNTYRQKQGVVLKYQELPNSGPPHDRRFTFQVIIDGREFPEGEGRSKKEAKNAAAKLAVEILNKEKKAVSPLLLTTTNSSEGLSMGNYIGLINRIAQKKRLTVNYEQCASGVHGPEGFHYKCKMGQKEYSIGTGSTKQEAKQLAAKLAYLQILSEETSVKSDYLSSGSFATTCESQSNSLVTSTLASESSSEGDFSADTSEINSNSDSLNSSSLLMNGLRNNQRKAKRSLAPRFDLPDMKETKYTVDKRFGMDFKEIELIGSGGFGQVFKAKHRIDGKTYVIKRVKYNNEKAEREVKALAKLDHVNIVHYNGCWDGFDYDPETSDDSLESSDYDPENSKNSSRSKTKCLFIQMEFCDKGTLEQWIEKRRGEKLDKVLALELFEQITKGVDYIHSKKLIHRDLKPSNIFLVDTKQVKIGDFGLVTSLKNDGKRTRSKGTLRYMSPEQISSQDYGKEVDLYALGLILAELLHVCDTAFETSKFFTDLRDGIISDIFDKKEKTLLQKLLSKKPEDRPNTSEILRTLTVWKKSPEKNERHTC
# ± gives the standard deviation of the averaged measurements. The list shows a part of the results, in another mix than the full data. Most entries show no effect beyond the scatter of the controls.
# Compound: Nc1ncnc2c1ncn2[C@@H]1O[C@H](COP(=O)(O)OP(=O)(O)NP(=O)(O)O)[C@@H](O)[C@H]1O [adenylyl imidodiphosphate]
# Test: NP40-soluble protein abundance relative to vehicle (solubility fold change) (ratio); higher = more soluble protein in presence of AMP-PNP
# Summary of the method: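 Values are fold changes against the detergent-processed vehicle, based on vsn-normalised intensities. Jurkat crude lysate was treated at eight concentrations from 0.1 to 10 mM (10 min at room temperature, then 3 min at 37 °C), solubilised with 0.8% NP40 and benzonase, ultracentrifuged and analysed by TMT-labelled LC-MS/MS over three independent experiments.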
Target,NP40-soluble protein abundance (concentration: 0.1mM),NP40-soluble protein abundance (concentration: 0.5mM)
VARS (UniProt P26640),1.02 ± 0.014,0.99 ± 0.02
PSMA4 (UniProt P25789),1 ± 0.036,1.01 ± 0.042
UniProt P32856 and related entries,1.01 ± 0.03,1.01 ± 0.02
JUND (UniProt P17535),0.972 ± 0.052,0.982 ± 0.031
UniProt P35240 and related entries,0.989 ± 0.041,0.996 ± 0.028
HSPA4 (UniProt P34932),0.964 ± 0.021,0.986 ± 0.032
TNFAIP3 (UniProt P21580),0.9954 ± 0.0053,1 ± 0.048
UniProt P25098,1 ± 0.015,1.03 ± 0.011
AGA (UniProt P20933),1.014 ± 0.0021,1.01 ± 0.028
GDI1 (UniProt P31150),1.02 ± 0.02,0.987 ± 0.07
UQCRC1 (UniProt P31930),1 ± 0.021,1.013 ± 0.0041
MCM3 (UniProt P25205),0.971 ± 0.021,0.944 ± 0.02
UniProt P36402-5,0.9808 ± 0.008,0.981 ± 0.016
GTF2E1 (UniProt P29083),1.04 ± 0.049,1 ± 0.021
GBP1 (UniProt P32455),0.979 ± 0.035,1.01 ± 0.063
UniProt P35244 and related entries,0.971 ± 0.029,1.02 ± 0.013
FDFT1 (UniProt P37268),1.03 ± 0.04,1.01 ± 0.057
ECHS1 (UniProt P30084),0.98 ± 0.023,1.01 ± 0.011
SRM (UniProt P19623),1.01 ± 0.047,0.985 ± 0.046
NMT1 (UniProt P30419),1.06 ± 0.038,1.03 ± 0.057
SDHA (UniProt P31040),1.002 ± 0.0037,0.969 ± 0.024

Target,NP40-soluble protein abundance (concentration: 0.1mM),NP40-soluble protein abundance (concentration: 0.5mM)
UniProt P29353 and related entries,0.992 ± 0.038,1.02 ± 0.062
UniProt P31327 and related entries,1.019 ± 0.0038,1 ± 0.011
ACO1 (UniProt P21399),0.991 ± 0.014,0.992 ± 0.025
CA8 (UniProt P35219),1 ± 0.021,0.999 ± 0.042
DDX6 (UniProt P26196),1.01 ± 0.0011,1.01 ± 0.029
CHML (UniProt P26374),0.967 ± 0.0024,0.9771 ± 0.0092
MYH9 (UniProt P35579),1 ± 0.05,1.06 ± 0.071
NDUFB7 (UniProt P17568),1.01 ± 0.071,1.07 ± 0.083
PEBP1 (UniProt P30086),0.999 ± 0.022,1.02 ± 0.026
WARS (UniProt P23381),0.994 ± 0.017,0.993 ± 0.053
EEF1G (UniProt P26641),0.9956 ± 0.0053,0.999 ± 0.043
FEN1 (UniProt P39748),0.98 ± 0.038,1.02 ± 0.034
MYH10 (UniProt P35580),1.07 ± 0.057,1.13 ± 0.14
RFC4 (UniProt P35249),1.02 ± 0.021,1.04 ± 0.032
UniProt P30044 and related entries,0.983 ± 0.013,1.01 ± 0.025
UniProt P28907,0.956 ± 0.016,0.971 ± 0.026
ARL2 (UniProt P36404),1 ± 0.025,1.01 ± 0.041
UniProt P32189 and related entries,1.014 ± 0.008,0.994 ± 0.054
UniProt P23610,1.05 ± 0.03,0.991 ± 0.045
UniProt P23443 and related entries,0.968 ± 0.021,1.01 ± 0.036
UniProt P25054 and related entries,0.9945 ± 0.0068,0.992 ± 0.052

Target,NP40-soluble protein abundance (concentration: 0.1mM),NP40-soluble protein abundance (concentration: 0.5mM)
ARL3 (UniProt P36405),1.02 ± 0.053,0.984 ± 0.089
EIF4A3 (UniProt P38919),1.06 ± 0.037,1.03 ± 0.16
UniProt P27824 and related entries,0.986 ± 0.0091,1.01 ± 0.013
PRKAR1B (UniProt P31321),1.05 ± 0.038,1.05 ± 0.026
KIF5B (UniProt P33176),0.991 ± 0.015,1.03 ± 0.048
RPS3 (UniProt P23396),1.05 ± 0.019,0.98 ± 0.077
PPIF (UniProt P30405),0.973 ± 0.021,1 ± 0.035
STOM (UniProt P27105),1.01 ± 0.023,1.01 ± 0.017
UniProt P17612,0.988 ± 0.13,0.935 ± 0.1
EEF1B2 (UniProt P24534),1.09 ± 0.15,0.901 ± 0.17
IGHMBP2 (UniProt P38935),1.11 ± 0.05,1.15 ± 0.032
GGT1 (UniProt P19440),0.955 ± 0.021,1 ± 0.014
UniProt P19525 and related entries,1.05 ± 0.041,1.06 ± 0.025
ATIC (UniProt P31939),1 ± 0.023,1.03 ± 0.05
UniProt P38117 and related entries,0.976 ± 0.034,0.979 ± 0.027
HMGB2 (UniProt P26583),0.998 ± 0.093,1.14 ± 0.17
NAGA (UniProt P17050),0.986 ± 0.028,0.992 ± 0.013
UniProt P34897 and related entries,1.03 ± 0.016,1.01 ± 0.016
UniProt P31942 and related entries,1.03 ± 0.06,1.06 ± 0.05
CD53 (UniProt P19397),0.982 ± 0.043,1.08 ± 0.062
UniProt P21359 and related entries,1.03 ± 0.023,0.965 ± 0.058

# Reformatted bar-delimited: entries from further up.
Target | NP40-soluble protein abundance (concentration: 0.1mM) | NP40-soluble protein abundance (concentration: 0.5mM)
UniProt P32856 and related entries | 1.01 ± 0.03 | 1.01 ± 0.02
JUND (UniProt P17535) | 0.972 ± 0.052 | 0.982 ± 0.031
UniProt P35240 and related entries | 0.989 ± 0.041 | 0.996 ± 0.028
